The values that follow come from article PMC5312288.

Sequences of proteins named here, by UniProt entry; tags and fusion partners are left off. Residues count along the entry.
UniProt Q00610: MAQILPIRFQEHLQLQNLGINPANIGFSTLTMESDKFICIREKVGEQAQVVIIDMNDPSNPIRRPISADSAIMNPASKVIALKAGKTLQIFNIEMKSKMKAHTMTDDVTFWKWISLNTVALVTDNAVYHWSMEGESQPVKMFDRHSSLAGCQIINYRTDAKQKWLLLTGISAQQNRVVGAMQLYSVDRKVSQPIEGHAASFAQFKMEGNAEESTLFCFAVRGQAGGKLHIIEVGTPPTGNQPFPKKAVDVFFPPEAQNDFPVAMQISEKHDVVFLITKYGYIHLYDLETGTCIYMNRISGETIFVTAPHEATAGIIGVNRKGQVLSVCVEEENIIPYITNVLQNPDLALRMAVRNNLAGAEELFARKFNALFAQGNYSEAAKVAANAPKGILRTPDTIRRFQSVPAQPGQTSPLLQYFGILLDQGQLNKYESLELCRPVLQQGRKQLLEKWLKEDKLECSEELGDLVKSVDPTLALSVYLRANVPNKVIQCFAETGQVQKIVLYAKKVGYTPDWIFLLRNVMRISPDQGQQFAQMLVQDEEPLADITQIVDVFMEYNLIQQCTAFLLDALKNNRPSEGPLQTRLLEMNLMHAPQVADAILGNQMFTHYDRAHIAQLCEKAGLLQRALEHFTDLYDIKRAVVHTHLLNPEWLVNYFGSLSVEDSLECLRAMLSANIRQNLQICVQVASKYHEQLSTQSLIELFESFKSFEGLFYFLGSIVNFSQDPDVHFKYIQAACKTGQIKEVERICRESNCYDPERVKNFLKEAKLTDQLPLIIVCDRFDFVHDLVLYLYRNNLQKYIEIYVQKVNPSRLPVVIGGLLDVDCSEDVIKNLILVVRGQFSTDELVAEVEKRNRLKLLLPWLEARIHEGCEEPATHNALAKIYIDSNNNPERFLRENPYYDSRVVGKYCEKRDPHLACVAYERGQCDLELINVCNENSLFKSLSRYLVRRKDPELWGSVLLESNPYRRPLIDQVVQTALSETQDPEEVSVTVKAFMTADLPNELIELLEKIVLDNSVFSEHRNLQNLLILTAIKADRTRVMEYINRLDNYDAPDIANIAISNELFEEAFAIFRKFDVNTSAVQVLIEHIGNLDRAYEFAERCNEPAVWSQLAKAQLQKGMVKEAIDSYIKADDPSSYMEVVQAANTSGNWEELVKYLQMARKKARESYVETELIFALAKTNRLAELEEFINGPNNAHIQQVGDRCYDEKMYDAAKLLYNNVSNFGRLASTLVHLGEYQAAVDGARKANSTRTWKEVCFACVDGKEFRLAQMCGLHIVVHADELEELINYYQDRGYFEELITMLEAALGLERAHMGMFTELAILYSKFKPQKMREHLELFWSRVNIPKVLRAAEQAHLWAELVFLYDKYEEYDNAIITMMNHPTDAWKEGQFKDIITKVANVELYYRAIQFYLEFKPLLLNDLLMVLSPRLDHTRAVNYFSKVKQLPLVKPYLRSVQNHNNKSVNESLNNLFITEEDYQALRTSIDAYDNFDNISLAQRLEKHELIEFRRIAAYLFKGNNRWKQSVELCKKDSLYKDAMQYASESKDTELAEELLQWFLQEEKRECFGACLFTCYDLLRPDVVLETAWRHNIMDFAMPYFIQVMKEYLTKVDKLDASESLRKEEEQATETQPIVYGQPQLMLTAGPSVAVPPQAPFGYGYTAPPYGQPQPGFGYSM
UniProt P07814: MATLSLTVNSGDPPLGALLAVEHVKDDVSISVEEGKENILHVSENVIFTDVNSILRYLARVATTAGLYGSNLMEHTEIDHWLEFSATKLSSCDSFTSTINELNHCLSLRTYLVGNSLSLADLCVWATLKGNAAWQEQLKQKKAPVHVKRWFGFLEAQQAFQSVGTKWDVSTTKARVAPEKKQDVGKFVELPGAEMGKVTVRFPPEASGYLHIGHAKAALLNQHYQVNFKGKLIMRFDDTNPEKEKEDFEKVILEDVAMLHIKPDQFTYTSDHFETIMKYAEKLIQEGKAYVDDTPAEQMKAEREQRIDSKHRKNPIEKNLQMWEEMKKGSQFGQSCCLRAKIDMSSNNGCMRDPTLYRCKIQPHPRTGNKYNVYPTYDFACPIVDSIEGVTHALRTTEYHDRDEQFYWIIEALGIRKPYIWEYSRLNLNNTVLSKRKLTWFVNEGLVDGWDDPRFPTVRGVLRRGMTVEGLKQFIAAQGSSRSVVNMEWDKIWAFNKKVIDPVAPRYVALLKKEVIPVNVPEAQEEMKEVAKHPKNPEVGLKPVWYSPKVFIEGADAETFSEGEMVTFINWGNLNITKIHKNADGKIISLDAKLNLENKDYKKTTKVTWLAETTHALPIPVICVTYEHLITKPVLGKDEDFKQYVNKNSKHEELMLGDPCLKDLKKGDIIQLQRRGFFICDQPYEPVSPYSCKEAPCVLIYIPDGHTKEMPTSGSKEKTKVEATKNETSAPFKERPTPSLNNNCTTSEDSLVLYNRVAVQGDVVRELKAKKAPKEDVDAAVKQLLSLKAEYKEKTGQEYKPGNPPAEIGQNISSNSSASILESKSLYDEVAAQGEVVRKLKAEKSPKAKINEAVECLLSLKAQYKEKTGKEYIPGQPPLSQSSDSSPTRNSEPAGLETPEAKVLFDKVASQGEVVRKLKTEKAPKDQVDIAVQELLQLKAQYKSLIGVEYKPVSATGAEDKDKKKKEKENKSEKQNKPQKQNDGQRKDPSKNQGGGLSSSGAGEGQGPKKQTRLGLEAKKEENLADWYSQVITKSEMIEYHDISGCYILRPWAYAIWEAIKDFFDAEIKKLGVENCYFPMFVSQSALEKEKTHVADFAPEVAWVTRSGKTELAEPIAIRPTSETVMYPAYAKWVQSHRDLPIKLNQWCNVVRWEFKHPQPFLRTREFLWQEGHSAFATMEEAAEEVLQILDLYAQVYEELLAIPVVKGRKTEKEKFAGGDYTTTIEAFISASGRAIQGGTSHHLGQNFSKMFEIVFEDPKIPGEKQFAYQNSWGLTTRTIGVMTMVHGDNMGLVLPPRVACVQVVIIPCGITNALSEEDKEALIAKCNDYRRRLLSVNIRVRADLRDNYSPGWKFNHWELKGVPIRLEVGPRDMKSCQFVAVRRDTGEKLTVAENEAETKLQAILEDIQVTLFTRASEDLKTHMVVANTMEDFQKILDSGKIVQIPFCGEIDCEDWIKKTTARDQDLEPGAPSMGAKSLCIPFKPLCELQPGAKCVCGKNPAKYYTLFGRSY
UniProt P08238: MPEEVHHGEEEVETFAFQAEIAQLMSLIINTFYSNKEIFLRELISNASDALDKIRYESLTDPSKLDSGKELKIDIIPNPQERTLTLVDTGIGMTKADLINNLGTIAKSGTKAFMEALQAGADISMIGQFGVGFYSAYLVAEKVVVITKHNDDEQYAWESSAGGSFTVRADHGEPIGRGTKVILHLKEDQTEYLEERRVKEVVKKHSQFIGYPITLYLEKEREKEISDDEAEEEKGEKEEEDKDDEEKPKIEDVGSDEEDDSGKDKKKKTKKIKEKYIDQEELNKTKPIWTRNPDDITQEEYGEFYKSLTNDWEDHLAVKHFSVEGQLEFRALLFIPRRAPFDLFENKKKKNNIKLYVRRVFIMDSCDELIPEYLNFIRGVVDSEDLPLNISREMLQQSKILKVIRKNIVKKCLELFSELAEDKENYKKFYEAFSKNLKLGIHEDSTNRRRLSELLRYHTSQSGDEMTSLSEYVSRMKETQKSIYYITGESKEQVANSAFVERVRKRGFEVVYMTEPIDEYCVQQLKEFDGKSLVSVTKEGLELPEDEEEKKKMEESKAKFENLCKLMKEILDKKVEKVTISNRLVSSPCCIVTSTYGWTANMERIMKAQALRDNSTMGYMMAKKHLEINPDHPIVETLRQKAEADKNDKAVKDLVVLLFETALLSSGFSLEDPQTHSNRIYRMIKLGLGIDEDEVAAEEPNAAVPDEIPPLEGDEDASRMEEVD
UniProt P10809, residues 27-573: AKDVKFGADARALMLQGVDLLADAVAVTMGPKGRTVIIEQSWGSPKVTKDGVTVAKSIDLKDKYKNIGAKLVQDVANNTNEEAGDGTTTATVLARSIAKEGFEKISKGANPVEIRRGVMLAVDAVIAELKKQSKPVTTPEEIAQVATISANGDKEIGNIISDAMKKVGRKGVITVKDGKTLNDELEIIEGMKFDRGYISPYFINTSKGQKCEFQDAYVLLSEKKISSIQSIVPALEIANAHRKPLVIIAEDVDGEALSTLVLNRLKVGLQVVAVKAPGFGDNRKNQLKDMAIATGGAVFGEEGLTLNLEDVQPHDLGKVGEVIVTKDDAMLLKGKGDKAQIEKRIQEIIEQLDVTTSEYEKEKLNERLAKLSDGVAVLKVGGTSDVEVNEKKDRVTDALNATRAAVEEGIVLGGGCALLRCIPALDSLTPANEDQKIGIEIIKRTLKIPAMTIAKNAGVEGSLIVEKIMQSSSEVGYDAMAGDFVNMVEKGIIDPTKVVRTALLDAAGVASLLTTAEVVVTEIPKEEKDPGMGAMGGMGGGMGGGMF
UniProt P38646, residues 47-679: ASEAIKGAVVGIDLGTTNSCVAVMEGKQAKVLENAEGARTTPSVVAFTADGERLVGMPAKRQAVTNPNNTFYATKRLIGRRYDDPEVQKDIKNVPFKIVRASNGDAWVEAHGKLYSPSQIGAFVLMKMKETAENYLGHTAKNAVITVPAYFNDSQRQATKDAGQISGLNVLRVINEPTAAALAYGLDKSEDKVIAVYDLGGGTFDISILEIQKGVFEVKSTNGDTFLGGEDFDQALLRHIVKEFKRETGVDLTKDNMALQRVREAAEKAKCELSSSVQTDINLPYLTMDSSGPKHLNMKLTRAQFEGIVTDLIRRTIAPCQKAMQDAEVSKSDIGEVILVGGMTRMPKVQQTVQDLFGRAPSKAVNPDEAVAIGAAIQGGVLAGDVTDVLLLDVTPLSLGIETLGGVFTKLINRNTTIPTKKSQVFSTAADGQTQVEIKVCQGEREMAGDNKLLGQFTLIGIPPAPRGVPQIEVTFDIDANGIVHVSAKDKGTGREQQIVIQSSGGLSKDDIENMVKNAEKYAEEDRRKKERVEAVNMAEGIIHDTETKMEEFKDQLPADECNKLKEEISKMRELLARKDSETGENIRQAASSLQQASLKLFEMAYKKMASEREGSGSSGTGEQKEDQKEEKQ
UniProt P14625, residues 22-803: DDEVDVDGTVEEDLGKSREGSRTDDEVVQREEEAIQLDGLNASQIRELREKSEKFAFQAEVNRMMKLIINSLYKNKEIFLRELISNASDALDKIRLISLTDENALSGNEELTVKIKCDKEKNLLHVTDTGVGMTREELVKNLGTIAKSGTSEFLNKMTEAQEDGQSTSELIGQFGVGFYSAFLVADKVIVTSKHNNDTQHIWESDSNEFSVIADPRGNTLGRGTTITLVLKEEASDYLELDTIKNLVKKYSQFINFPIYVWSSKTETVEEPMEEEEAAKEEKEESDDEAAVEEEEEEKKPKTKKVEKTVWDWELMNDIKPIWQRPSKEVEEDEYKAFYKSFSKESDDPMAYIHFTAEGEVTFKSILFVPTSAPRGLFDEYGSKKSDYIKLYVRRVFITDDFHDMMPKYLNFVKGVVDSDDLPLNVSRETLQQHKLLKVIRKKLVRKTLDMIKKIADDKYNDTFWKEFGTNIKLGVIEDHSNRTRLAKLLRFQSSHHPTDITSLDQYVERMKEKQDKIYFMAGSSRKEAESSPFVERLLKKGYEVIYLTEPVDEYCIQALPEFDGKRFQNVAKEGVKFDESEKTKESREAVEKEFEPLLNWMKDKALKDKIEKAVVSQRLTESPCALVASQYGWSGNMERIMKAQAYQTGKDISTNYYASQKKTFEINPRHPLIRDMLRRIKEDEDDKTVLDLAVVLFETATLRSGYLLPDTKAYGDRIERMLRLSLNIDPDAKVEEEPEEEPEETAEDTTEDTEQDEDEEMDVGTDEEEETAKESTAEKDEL
UniProt P13645: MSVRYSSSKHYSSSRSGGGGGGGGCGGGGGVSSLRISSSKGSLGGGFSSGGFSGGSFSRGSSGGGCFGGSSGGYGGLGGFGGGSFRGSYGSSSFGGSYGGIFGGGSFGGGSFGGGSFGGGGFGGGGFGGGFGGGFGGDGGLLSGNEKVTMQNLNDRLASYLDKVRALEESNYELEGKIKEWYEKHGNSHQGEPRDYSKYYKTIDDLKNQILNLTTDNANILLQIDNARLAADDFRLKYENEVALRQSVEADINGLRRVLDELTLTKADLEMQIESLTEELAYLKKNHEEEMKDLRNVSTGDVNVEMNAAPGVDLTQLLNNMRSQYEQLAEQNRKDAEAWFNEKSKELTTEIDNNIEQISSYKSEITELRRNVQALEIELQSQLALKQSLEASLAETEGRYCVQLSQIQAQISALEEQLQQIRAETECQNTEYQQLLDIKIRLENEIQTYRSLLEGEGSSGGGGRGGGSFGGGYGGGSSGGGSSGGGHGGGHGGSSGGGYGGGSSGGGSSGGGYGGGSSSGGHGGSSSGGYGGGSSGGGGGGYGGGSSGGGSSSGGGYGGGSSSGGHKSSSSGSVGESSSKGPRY

This assay addresses T1, Osteoprotegerin (human (endogenous in HMEC, SUM149PT, SUM1315MO2)) (UniProt O00300).
T1 sequence: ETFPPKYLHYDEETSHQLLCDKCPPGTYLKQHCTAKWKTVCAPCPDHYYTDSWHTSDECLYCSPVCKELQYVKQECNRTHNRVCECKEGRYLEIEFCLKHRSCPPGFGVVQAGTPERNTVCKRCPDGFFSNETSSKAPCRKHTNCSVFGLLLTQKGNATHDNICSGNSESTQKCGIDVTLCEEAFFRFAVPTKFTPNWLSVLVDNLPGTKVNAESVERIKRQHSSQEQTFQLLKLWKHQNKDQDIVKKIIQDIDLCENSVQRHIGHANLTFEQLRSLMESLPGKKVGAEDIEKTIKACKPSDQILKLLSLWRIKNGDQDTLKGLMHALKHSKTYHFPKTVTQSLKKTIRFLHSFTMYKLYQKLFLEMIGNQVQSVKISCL
Nature of the assay: affinity purification with mass spectrometry; lysates of HMEC, SUM149PT and SUM1315MO2 cells immunoprecipitated with anti-OPG antibody; SDS-PAGE; 17 gel bands analysed by LC-ESI-MS.

These are yes or no findings as the source states them, for the method shown. Binding seen in cells or lysates may run through a third protein. Here binding means that the protein was enriched with, or labelled near, the bait; the list need not be complete.

In the case of “Alpha actinin 2 (from UniProt P35609 1-894)”, the binding entry is listed as “binds”.

Regarding “Alpha actinin 3 (from UniProt Q08043 1-901)”, the binding result was “binds”. As for “Alpha-actinin 4 (from UniProt O43707 1-911)”, the binding entry is “binds”. As for Annexin A2 (from UniProt P07355 1-339), the binding entry is given as “binds”. The same measure for “BiP protein (from UniProt P11021 19-654)”: “binds”; for “Clathrin heavy chain 1 (from UniProt Q00610 1-1675)”: “binds”. As to “Fibrinogen betaB (from UniProt P02675 31-491)”, the binding entry is recorded as “binds”. The result for “Fibrinopeptide B (from UniProt P02675 31-44)” reads “binds”; that for Filamin A (from UniProt P21333 1-2647), “binds”. The result for “Glutamyl-prolyl-tRNA synthetase (from UniProt P07814 1-1512) (enzyme)” reads “binds”. In the case of “Glyceraldehyde-3-phosphate dehydrogenase (from UniProt P04406 1-335) (enzyme)”, the binding result is on record as “binds”.

For the molecule “HSP90AB1 protein (from UniProt P08238 1-724)”, the binding entry was “binds”.

Consider “Heat shock 60kDa protein 1 (chaperonin) (from UniProt P10809 27-573)”, for which the binding entry was “binds”. The same measure for “Heat shock 70kDa protein 9 (mortalin) (from UniProt P38646 47-679)”: “binds”; for “Heat shock protein gp96 precursor (from UniProt P14625 22-803)”: “binds”. The result for Isoleucine-tRNA synthetase (enzyme) reads “binds”; that for Keratin 10 (from UniProt P13645 1-584), “binds”. The result for Myosin-9 (from UniProt P35579 1-1960) reads “binds”. Consider “NPM1 protein (from UniProt P06748 1-294)”, for which the binding result is on record as “binds”. The same measure for “POTE ankyrin domain family member F (from UniProt A5A3E0 1-1075)”: “binds”; for Proliferation-inducing protein 44: “binds”; for “Ras GTPase-activating-like protein IQGAP1 (from UniProt P46940 1-1657)”: “binds”. The result for “Valosin-containing protein (from UniProt P55072 1-806) (enzyme)” reads “binds”.

B1: Ribosome-binding protein 1 (protein, UniProt Q9P2E9 1-1410)
chain: MDIYDTQTLGVVVFGGFMVVSAIGIFLVSTFSMKETSYEEALANQRKEMAKTHHQKVEKKKKEKTVEKKGKTKKKEEKPNGKIPDHDPAPNVTVLLREPVRAPAVAVAPTPVQPPIIVAPVATVPAMPQEKLASSPKDKKKKEKKVAKVEPAVSSVVNSIQVLTSKAAILETAPKEVPMVVVPPVGAKGNTPATGTTQGKKAEGTQNQSKKAEGAPNQGRKAEGTPNQGKKTEGTPNQGKKAEGTPNQGKKAEGTPNQGKKAEGAQNQGKKVDTTPNQGKKVEGAPTQGRKAEGAQNQAKKVEGAQNQGKKAEGAQNQGKKGEGAQNQGKKAEGAQNQGKKAEGAQNQGKKAEGAQNQGKKAEGAQNQGKKAEGAQNQGKKAEGAQNQGKKVEGAQNQGKKAEGAQNQGKKAEGAQNQGKKAEGAQNQGKKAEGAQNQGKKAEGAQNQGKKAEGAQNQGKKAEGAQNQGKKVEGAQNQGKKAEGAQNQGKKAEGAQNQGKKAEGAQNQGQKGEGAQNQGKKTEGAQGKKAERSPNQGKKGEGAPIQGKKADSVANQGTKVEGITNQGKKAEGSPSEGKKAEGSPNQGKKADAAANQGKKTESASVQGRNTDVAQSPEAPKQEAPAKKKSGSKKKGEPGPPDADGPLYLPYKTLVSTVGSMVFNEGEAQRLIEILSEKAGIIQDTWHKATQKGDPVAILKRQLEEKEKLLATEQEDAAVAKSKLRELNKEMAAEKAKAAAGEAKVKKQLVAREQEITAVQARMQASYREHVKEVQQLQGKIRTLQEQLENGPNTQLARLQQENSILRDALNQATSQVESKQNAELAKLRQELSKVSKELVEKSEAVRQDEQQRKALEAKAAAFEKQVLQLQASHRESEEALQKRLDEVSRELCHTQSSHASLRADAEKAQEQQQQMAELHSKLQSSEAEVRSKCEELSGLHGQLQEARAENSQLTERIRSIEALLEAGQARDAQDVQASQAEADQQQTRLKELESQVSGLEKEAIELREAVEQQKVKNNDLREKNWKAMEALATAEQACKEKLLSLTQAKEESEKQLCLIEAQTMEALLALLPELSVLAQQNYTEWLQDLKEKGPTLLKHPPAPAEPSSDLASKLREAEETQSTLQAECDQYRSILAETEGMLRDLQKSVEEEEQVWRAKVGAAEEELQKSRVTVKHLEEIVEKLKGELESSDQVREHTSHLEAELEKHMAAASAECQNYAKEVAGLRQLLLESQSQLDAAKSEAQKQSDELALVRQQLSEMKSHVEDGDIAGAPASSPEAPPAEQDPVQLKTQLEWTEAILEDEQTQRQKLTAEFEEAQTSACRLQEELEKLRTAGPLESSETEEASQLKERLEKEKKLTSDLGRAATRLQELLKTTQEQLAREKDTVKKLQEQLEKAEDGSSSKEGTSV
For the molecule B1, the binding entry is “binds”.

B2: Glutaminyl-tRNA synthetase (enzyme, UniProt P47897 1-775)
chain: MAALDSLSLFTSLGLSEQKARETLKNSALSAQLREAATQAQQTLGSTIDKATGILLYGLASRLRDTRRLSFLVSYIASKKIHTEPQLSAALEYVRSHPLDPIDTVDFERECGVGVIVTPEQIEEAVEAAINRHRPQLLVERYHFNMGLLMGEARAVLKWADGKMIKNEVDMQVLHLLGPKLEADLEKKFKVAKARLEETDRRTAKDVVENGETADQTLSLMEQLRGEALKFHKPGENYKTPGYVVTPHTMNLLKQHLEITGGQVRTRFPPEPNGILHIGHAKAINFNFGYAKANNGICFLRFDDTNPEKEEAKFFTAICDMVAWLGYTPYKVTYASDYFDQLYAWAVELIRRGLAYVCHQRGEELKGHNTLPSPWRDRPMEESLLLFEAMRKGKFSEGEATLRMKLVMEDGKMDPVAYRVKYTPHHRTGDKWCIYPTYDYTHCLCDSIEHITHSLCTKEFQARRSSYFWLCNALDVYCPVQWEYGRLNLHYAVVSKRKILQLVATGAVRDWDDPRLFTLTALRRRGFPPEAINNFCARVGVTVAQTTMEPHLLEACVRDVLNDTAPRAMAVLESLRVIITNFPAAKSLDIQVPNFPADETKGFHQVPFAPIVFIERTDFKEEPEPGFKRLAWGQPVGLRHTGYVIELQHVVKGPSGCVESLEVTCRRADAGEKPKAFIHWVSQPLMCEVRLYERLFQHKNPEDPTEVPGGFLSDLNLASLHVVDAALVDCSVALAKPFDKFQFERLGYFSVDPDSHQGKLVFNRTVTLKEDPGKV
In the case of B2, the binding entry was “binds”.
